These are yes or no findings as the source states them, for the method shown. In cells and extracts the contact can be indirect. Binding calls can cover weak binding; strength is not graded here. For some assays here: Sequences can lack the tags named with a protein.
Assays:
[1] = target: T1, SCP1, wild type, overexpressed (tag not stated for these experiments) (UniProt Q9GZU7); assay: co-IP; overexpressed SCP1 immunoprecipitated from HEK293T cells; endogenous AKT detected by immunoblotting
T1 sequence (chain, palmitoylated in HEK293T cells (ABE assay); Cys44 and Cys45 the major sites): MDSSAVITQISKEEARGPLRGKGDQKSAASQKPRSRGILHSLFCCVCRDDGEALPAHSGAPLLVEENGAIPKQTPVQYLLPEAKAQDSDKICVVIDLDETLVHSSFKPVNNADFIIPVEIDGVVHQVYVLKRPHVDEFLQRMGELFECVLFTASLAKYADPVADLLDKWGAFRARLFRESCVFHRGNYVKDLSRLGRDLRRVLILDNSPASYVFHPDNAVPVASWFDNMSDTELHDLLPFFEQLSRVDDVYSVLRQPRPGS

[2] = target: T2, SCP1 (small CTD phosphatase 1), endogenous (human (endogenous in HEK293T)) (UniProt Q9GZU7); assay: co-IP; endogenous SCP1 immunoprecipitated from HEK293T cells with an anti-SCP1 antibody; associated endogenous AKT detected with an anti-AKT antibody
T2 sequence (chain, palmitoylated in HEK293T cells (ABE assay); Cys44 and Cys45 the major sites): T1 sequence (chain, palmitoylated in HEK293T cells (ABE assay); Cys44 and Cys45 the major sites)

## AKT, endogenous (human (endogenous in HEK293T)) (enzyme)
[1]
  binding: binds
[2]
  binding: binds

— publication PMC5404917
